From PubChem BioAssay AID493014 (National Center for Advancing Translational Sciences (NCATS), 2011)
The list shows a part of the results. These are further read-outs of the screen, such as a control signal, another cell line or another target. No call is given for them. The list favours compounds with an active or inconclusive main result. Potencies come from curve fits of mixed quality, noted in brackets.

Test: qHTS Assay to Find Inhibitors of Chronic Active B-Cell Receptor Signaling
Conditions: ABC-DLBCL IkBa-CBG/CBR reporter, luminescence ratio (green luciferase fused to IkBa over red control in TMD8 lymphoma cells), 4 h
How it was run: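 TMD8 ABC-DLBCL cells carrying doxycycline-inducible green luciferase fused to IkappaBalpha plus unfused red luciferase were exposed to compounds (up to 46 uM) for 4 hrs at 37C. Activity came from the overlap-corrected green/red luminescence ratio.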

[1] = measured here: CBR red luminescence, cell number
[2] = measured here: IkBa-CBG green luminescence

Row | Compound | AC50 [1] | AC50 [2]
1 | COC(=O)c1c(F)c(F)c(N2CCOCC2)c(F)c1F | 0.116 µM [rising, full curve, poor fit] | 
2 | CCOc1cc(C(c2c(C)[nH][nH]c2=O)c2c(C)[nH][nH]c2=O)ccc1OCc1ccc([N+](=O)[O-])cc1 | 16.4 µM [falling, single point] | 
3 | COC(=O)c1cc2oc(C)cc2n1CC(=O)Nc1ccc(OC)c(OC)c1OC | 0.112 µM [rising, full curve, poor fit] | 
4 | COc1ccc(-c2nn(C)c(=O)c3ccccc23)cc1CNC(=O)c1ccco1 | 32.6 µM [rising, single point] | 
5 | O=C(NCCc1ccccc1)c1n[nH]c(=O)c2ccccc12 | 20 µM [falling, partial curve, poor fit] | 
6 | CSc1nnc(-c2ccco2)n1-c1ccccc1 | 35.5 µM [rising, single point] | 
7 | CC(=O)c1ccccc1NCC(=O)Nc1ccc(C)cc1 | 20 µM [falling, partial curve, poor fit] | 
8 | C[C@H](CO)N1C[C@H](C)[C@@H](CN(C)S(=O)(=O)c2ccccc2)Oc2c(NC(=O)Nc3ccc4c(c3)OCO4)cccc2C1=O | 32.6 µM [falling, single point] | 
9 | CCCCn1c(N)c(N(CCOC)C(=O)COC(=O)COc2cc(C)c(Cl)cc2C(C)C)c(=O)[nH]c1=O | 18.4 µM [falling, single point] | 
10 | CCOC(=O)C1CCN(c2cc(C)nc3cc(-c4cccc(F)c4)nn23)CC1 | 11.6 µM [rising, partial curve, poor fit] | 
11 | COc1ccc(-c2cn(-c3ccc(C)c(C)c3)c(=S)[nH]2)cc1OC | 3.55 µM [falling, full curve, poor fit] | 
12 | O=C(Nn1cnc2ccccc2c1=O)c1ccc(F)cc1Cl | 1.58 µM [rising, partial curve] | 
13 | Cc1ccc2oc(=O)c(/C=C(\O)c3ccco3)nc2c1 | 7.08 µM [falling, single point] | 
14 | O=C(Nc1ccccc1F)c1cc2c(s1)-c1ccccc1S(=O)(=O)C2 | 2.82 µM [falling, full curve] | 
15 | CC(=O)c1nc2ccccc2n1S(=O)(=O)c1ccc(C)cc1 | 7.08 µM [falling, partial curve, poor fit] | 
16 | CCOC(=O)c1nc(C)n(-c2ccc(Cl)cc2)n1 | 29.1 µM [rising, single point] | 
17 | Cc1nn(Cc2ccc(Cl)cc2)c(C)c1NC(=O)c1noc2c1CCCCC2 | 18.4 µM [falling, single point] | 
18 | Cc1cccc(NC(=O)COc2coc(CN3CCc4ccccc4C3)cc2=O)c1 | 29.1 µM [falling, single point] | 
19 | CCn1c2ccccc2c2cc(CN3CCN(Cc4cc(OC)ccc4O)CC3)ccc21 | 17.8 µM [falling, single point] | 
20 | O=C(Nc1ccc(N2CCOCC2)cc1)c1cccc(S(=O)(=O)N2CCCC2)c1 | 5.17 µM [falling, full curve, poor fit] | 
21 | O=c1[nH][nH]c(-c2ccccc2O)c1C(C[N+](=O)[O-])c1ccc(Br)cc1 (configuration not stated) | 7.31 µM [falling, partial curve] | 
22 | O=C(NC1CCCCC1)C1CC(O)CN1C(=O)OCc1ccccc1 (configuration not stated) | 32.6 µM [rising, single point] | 

Row | Compound | AC50 [1] | AC50 [2]
23 | CCOc1ccc(-n2c(N)c(-c3nc4ccccc4n3C)c3nc4ccccc4nc32)cc1 | 32.6 µM [falling, single point] | 
24 | Cc1sc(NC(=O)Cn2[nH]c(=O)c3ccccc3c2=O)nc1-c1ccccc1 | 6.51 µM [rising, single point] | 
25 | C=CCOC(=O)/C(=C/c1cccnc1)NC(=O)c1ccccc1 | 35.5 µM [rising, single point] | 
26 | O=C(O)CCCC(=O)OCCc1cc2ccccc2c(=O)o1 | 3.66 µM [falling, full curve] | 
27 | O=C(CCl)Nc1cccc(S(=O)(=O)NC2=NCCC2)c1 |  | 12.6 µM [falling, partial curve, poor fit]
28 | N#CC1=C(N)NC(=S)C(C(N)=O)C1c1ccc(Cl)cc1Cl (configuration not stated) | 35.5 µM [falling, single point] | 
29 | CCOC(=O)c1sc(NC(=O)CSc2n[nH]c(-c3ccccc3)n2)c(C#N)c1C | 25.9 µM [falling, single point] | 
30 | Nn1cnnc1N/N=C/c1ccccc1C(F)(F)F | 6.31 µM [rising, single point] | 
31 | Clc1ccc(-c2nnc(-c3ccco3)o2)cc1 | 3.16 µM [rising, partial curve, poor fit] | 
32 | COc1cccc(-c2cc(C(=O)N/N=C/c3ccco3)c3ccccc3n2)c1 | 1.41 µM [rising, single point] | 
33 | Oc1cccc2ccc(/C=C/c3c(F)cccc3Cl)nc12 | 15.8 µM [rising, partial curve] | 25.1 µM [falling, single point]
34 | COc1ccc(S(=O)(=O)N2CCOCC2)c(Cl)c1Cl |  | 7.31 µM [falling, partial curve, poor fit]
35 | O=C(NCCc1cn2ccsc2n1)c1cccs1 | 29.1 µM [falling, single point] | 
36 | O=C(c1ccco1)N(CCC(c1ccccc1)c1ccco1)Cc1ccc(F)cc1 (configuration not stated) | 35.5 µM [falling, single point] | 
37 | CCOC(=O)C1CCCN(c2c(NCCN(C)Cc3ccccc3)c(=O)c2=O)C1 (configuration not stated) | 18.4 µM [falling, single point] | 
38 | O=C(Nc1ccccc1)Nc1cc(Cl)cc(Cl)c1 | 1.84 µM [falling, partial curve, poor fit] | 
39 | CC1=CCn2c(=O)c3ccccc3c(=O)n2C1 | 6.51 µM [rising, single point] | 
40 | COC1(OC)N=C(N)C2(C#N)C(c3ccc4c(c3)OCO4)C12C#N (configuration not stated) | 0.282 µM [falling, full curve, poor fit] | 
41 | COc1ccccc1OCCNC(=O)c1cccc(S(=O)(=O)NCc2ccccc2)c1 | 0.082 µM [falling, full curve, poor fit] | 
42 | CCOc1nsc(OCC)n1 | 1.26 µM [rising, full curve] | 
43 | Cc1ccccc1-n1c(=O)n(CCc2ccccc2)c(=O)c2[nH]cnc21 | 0.112 µM [falling, full curve, poor fit] | 
44 | COC(=O)/C=C/C1=CN(Cc2ccccc2)CCC1=O | 3.66 µM [rising, single point] | 

Given with each value named: entries from further up
Clc1ccc(-c2nnc(-c3ccco3)o2)cc1
  AC50 [1]: 3.16 µM [rising, partial curve, poor fit]
COc1cccc(-c2cc(C(=O)N/N=C/c3ccco3)c3ccccc3n2)c1
  AC50 [1]: 1.41 µM [rising, single point]
Oc1cccc2ccc(/C=C/c3c(F)cccc3Cl)nc12
  AC50 [1]: 15.8 µM [rising, partial curve]; AC50 [2]: 25.1 µM [falling, single point]

Continued.

Row | Compound | AC50 [1] | AC50 [2]
45 | COc1ccc(C)cc1-n1c(SCC(=O)NCC2CCCO2)nc2c([nH]c3ccccc32)c1=O (configuration not stated) | 20 µM [falling, single point] | 
46 | Oc1c(N=Nc2ccccn2)ccc2ccccc12 | 35.5 µM [falling, single point] | 
47 | O=C(Nc1nc(=S)ss1)c1ccc(Cl)cc1Cl | 0.0891 µM [rising, full curve, poor fit] | 
48 | Cc1c(NC(=O)c2ccc([N+](=O)[O-])o2)cccc1-c1nc2ncccc2o1 | 11.2 µM [falling, partial curve, poor fit] | 
49 | O=C(NC(NC(=S)Nc1ccc(Cl)cc1Cl)C(Cl)(Cl)Cl)c1cccc([N+](=O)[O-])c1 (configuration not stated) | 15.8 µM [falling, partial curve] | 
50 | Oc1ccc(Nc2nc3ccccc3nc2Nc2ccc(O)cc2)cc1 | 4.11 µM [falling, full curve] | 
51 | Cc1csc(NC(=O)c2ccc(OCC3CCCO3)cc2)n1 (configuration not stated) | 3.16 µM [falling, full curve] | 
52 | CC(=O)N1SC(N)=NC1c1ccccc1 (configuration not stated) | 20 µM [rising, single point] | 
53 | CNC(=O)Nc1ccc(Cl)cc1 | 1.64 µM [rising, partial curve, poor fit] | 
54 | CCOc1cc(C)c(S(=O)(=O)Nc2ccc3cn[nH]c3c2)cc1C | 35.5 µM [falling, single point] | 
55 | C[C@@H](C(=O)NCCc1ccccc1F)N1C(=O)N2CCc3c([nH]c4ccccc34)[C@@]2(C)C1=O | 28.2 µM [falling, single point] | 
56 | CCCCCCCCS(=O)C1CS(=O)(=O)CC1O (configuration not stated) | 2.82 µM [rising, single point] | 
57 | COc1ccc(-c2cn3nc(C)c(C)nc3n2)cc1OC | 0.326 µM [rising, partial curve, poor fit] | 
58 | COc1ccc(-c2csc(Nc3cccc(C)n3)n2)cc1C | 35.5 µM [falling, single point] | 
59 | COc1ccc(C(NCC(=O)NC(C)c2ccc(Cl)cc2)c2ccccc2)cc1 (configuration not stated) | 12.6 µM [falling, partial curve, poor fit] | 
60 | Cc1cccc(NC(=O)c2ccc3c(c2)OCCO3)n1 | 35.5 µM [falling, single point] | 
61 | Cc1nc(Cl)cc(N/N=C/c2ccc(O)cc2O)n1 | 3.55 µM [falling, full curve] | 
62 | NC(=O)NC(=O)COC(=O)CCCSc1nc2ccccc2s1 | 7.94 µM [falling, partial curve] | 
63 | Cc1ccc(NC(=O)c2sc3ncnc(N4CCN(c5ccccn5)CC4)c3c2C)c(C)c1 | 3.55 µM [falling, full curve, poor fit] | 
64 | C(=C\c1ccccc1)/CSc1nnc(-c2ccccc2)n1Cc1ccco1 |  | 17.8 µM [falling, single point]
65 | Cc1cccc(NC(=O)CCCN2C(=O)c3cccc4cccc(c34)C2=O)c1 | 1.26 µM [rising, full curve, poor fit] | 
66 | COc1ccc2c(c1)C(=O)CC(c1ccc3c(c1)OCCO3)O2 (configuration not stated) | 3.98 µM [rising, single point] | 
